One data set addresses ERBB2 (HER2) (Homo sapiens?) (UniProt P04626). Put plainly: ELONA. The following applies: purified recombinant protein, protein details: R&D Systems 1129-ER-050, single-stranded DNA.
Data set [1] addresses ERBB2 (HER2) in A431 cells (UniProt P04626). Put plainly: activity in cells. The following applies: 6 (n) = NapdU [n positions 2,4,5,10,11,12,16,20,24,35 = modified dU], protein on the cell surface, single-stranded DNA, variant of clone #11 (1194-2, 9-ER-N-B12_C06).
Data set [2] addresses ERBB2 (HER2) on MCF7 cells (UniProt P04626). Put plainly: flow cytometry. Particulars: 6 (n) = NapdU [n positions 2,4,5,10,11,12,16,20,24,35 = modified dU]; MCF7, 100 pmol, 4 C; cytochemistry also positive (FIG. 7B); protein on the cell surface; label: Cy3; single-stranded DNA; variant of AP001-24 (1194-34, #11 short). For orientation: Flow cytometry measures light scatter and fluorescence of single cells or particles in a stream.

Results on 3 sequences are retold here after patent publication US20150005368.

For some assays here: Where cells or extracts were used, other partners may take part. For some assays here: For at least one entry, the source does not settle the construct or the ends of the probe.

Broadly, the IC50 is the point on the concentration scale where inhibition reaches its midpoint. A lower IC50 goes with higher potency. Regarding “ATGTTAGAGTTTGCCTGAGTGCCTCGCAAGGGCGTAACAA [AP001-24 (1194-34, #11 short)]”, the binding result with ERBB2 (HER2) (6 (n) = NapdU [n positions 2,4,5,10,11,12,16,20,24,35 = modified dU], sandwich with AP001-25, detects ERBB2 down to 50 pg/ml in 5% serum, variant of clone #11 (1194-2, 9-ER-N-B12_C06)) is listed as “binds”. Besides, in data set [1] (20 nM aptamer blocks EGF- or HRG-induced ERBB2 Tyr877 phosphorylation), the “functional effect of the aptamer” value was “active”. In data set [1] (inhibition of EGF-induced ERBB2 phosphorylation in A431), the IC50 is 1 nM.

On to “ATGTTAGAGTTTGCCTGAGTGCCTCGCAAGGGCGTAACAA [Cy3-AP001-24]”, for which the binding result in data set [2] was “binds”.

For “TCCTGGCATGTTCGATGGAGGCCTTTGATTACAGCCCAGA [AP001-25 (1194-35, #12 short)]”, the binding result in the data set with ERBB2 (HER2) (6 (n) = NapdU [n positions 1,4,9,11,12,16,24,25,26,29,30 = modified dU], sandwich with AP001-24, AP001-25 immobilized on plate, 5% serum, variant of clone #12 (1194-1, 9-ER-N-C02_D06)) was “binds”.
